Laboratory results published in US20140186359A1.
These are yes or no findings as the source states them, for the method shown. Some results given as binding are weak or reduced against the parent protein; the word gives no strength.

The chains behind the UniProt entries cited, without tags or fusion partners. Where a name states a change or a piece, a line headed by the entry shows the natural chain unless it says otherwise.
UniProt Q14444: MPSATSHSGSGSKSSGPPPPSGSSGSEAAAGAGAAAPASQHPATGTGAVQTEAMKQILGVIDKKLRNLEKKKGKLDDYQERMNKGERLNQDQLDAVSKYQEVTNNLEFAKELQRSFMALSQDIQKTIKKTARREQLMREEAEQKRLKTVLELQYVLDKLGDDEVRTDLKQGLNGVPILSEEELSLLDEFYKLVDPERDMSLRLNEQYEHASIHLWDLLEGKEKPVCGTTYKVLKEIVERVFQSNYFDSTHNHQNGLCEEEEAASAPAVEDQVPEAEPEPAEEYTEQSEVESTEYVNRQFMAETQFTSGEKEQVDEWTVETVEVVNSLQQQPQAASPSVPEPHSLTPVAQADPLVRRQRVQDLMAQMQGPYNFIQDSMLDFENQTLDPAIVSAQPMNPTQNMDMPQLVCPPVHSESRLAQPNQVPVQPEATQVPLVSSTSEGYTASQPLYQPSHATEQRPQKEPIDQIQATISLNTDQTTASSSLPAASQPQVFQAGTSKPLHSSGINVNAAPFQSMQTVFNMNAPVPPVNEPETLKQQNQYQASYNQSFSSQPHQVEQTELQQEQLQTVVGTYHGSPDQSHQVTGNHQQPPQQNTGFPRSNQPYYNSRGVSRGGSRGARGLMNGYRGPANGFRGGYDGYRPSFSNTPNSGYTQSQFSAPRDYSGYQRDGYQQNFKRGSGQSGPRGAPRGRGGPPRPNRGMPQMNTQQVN

B1: chicken monoclonal antibody #3 (antibody, V domains shown)
VH: AVTLDESGGGLQTPGGGLSLVCKGSGFTFSSFGMFWVRQAPGKGLEFVASISDNGRSTYYGSAVKGRATISRDDGQSTVRLQLNNLRAEDTGTYYCAKNAYVGRGCCFSYSIDAWGHGTEVIVS
VL: ALTQPASVSVNPGETVKITCSGGGSSSDAYGWYQQKSPGSAPVTLIYNGSNRPSHIPSRFSGSTSGSTNTLTITGVQVEDEAIYFCGSTDTSTSVGIFGAGTTLTV
B2: chicken monoclonal antibody #4 (antibody, V domains shown)
VH: AVTLDESGGGLQTPGGAVSLVCKGSGFTFSSYGMGWVRQAPGKGLEYVAAIRKDGSTNYGPAVKGRATISRDNGQSTVRLQLSNLRAEDTATYYCAKRSHTGVNAAKIDAWGRGTEVIVS
VL: ALTQPASVSANPGETVKITCSGASHNYGWFQQKSPGSAPVTVIYSNDKRPSDIPSRFSGSKSGSTATLTITGVQADDEAVYFCGGYNIYGPTFGAGTTLTV
B3: chicken monoclonal antibody #1 (antibody, V domains shown)
VH: AVTLDESGGGLQTPGGALSLVCKASGFTFRSHSMFWVRQAPGKGLEYVAGIYGVGRSIRYGSAVKGRATMSRDNGQSTVRLQLNNLRAEDTATYYCAKSGYFSNSRYWDSGAYFIDAWGHGTEVIVS
VL: ALTQPASVSANPGETVEITCSGGYSNYGWYQQKSPGSAPVTVIYYNDKRPSDIPSRFSGSKSGSTATLTITGVQAEDEAVYFCGGYDSSTDAGIFGAGTTLTV

Molecular target: human CAPRIN-1 expressed on the surface of human cancer cells (human) (UniProt Q14444)
Experiment: flow cytometry on human cancer cell lines

Row | binding | Binder
1 | binds | B1
2 | binds | B2
3 | binds | B3

Molecular target: human CAPRIN-1 expressed on the surface of human cancer cells (human) (UniProt Q14444)
Experiment: flow cytometry, MDA-MB-231V cells, hybridoma supernatant

Row | binding | Binder
4 | binds | B1
5 | binds | B2
6 | binds | B3
